According to PubChem BioAssay AID540256 (National Center for Advancing Translational Sciences (NCATS), 2011):
The whole screen tested about 300,000 compounds, of which about 3,700 (1.2%) were called active. This list was built around the results that the source calls inconclusive (neither active nor inactive); the mix of calls is not that of the screen. The call rests on the fitted dose curve; tested in HEK293 cells. Where the call is inconclusive, the potency comes from a doubtful curve fit.

experiment: qHTS for Inhibitors of binding or entry into cells for Lassa Virus; settings: Lassa virus pseudotype entry inhibition, cell reporter; activity change, negative = inhibition: at 37.9 µM (top of the series) unless noted; further: nearly all actives have a fitted effect of over 50% in size
On the % scale 0 is the no-effect control and ±100 the full control effect; potency means the concentration at half of the fitted maximal effect.

Structure (SMILES)	Potency	activity change, negative = inhibition
CN(C)C(=O)CSc1n[nH]c(=O)n1CCc1ccccc1	inconclusive: 2 µM [activator, single point]	
COc1ccc(OCc2cc(C(=O)N3C[C@H]4CC[C@H]3C4)no2)c(Cl)c1		inactive: -21%
Cc1cccc(N2CCN(C(=O)c3ccc4c(c3)c(C)c(C)n4C)CC2C)c1 (stereo not drawn)		inactive: 25% [at 46.1 µM]
Cc1ccc(S(=O)(=O)Cn2nnnc2CN2CCCC3(CCCCC3)C2)cc1	inconclusive: 1.46 µM [inhibitor, partial curve, poor fit]	
O=[N+]([O-])c1ccc(/C=[N+](\[O-])[C@@H]2CCCC[C@@H]2/[N+]([O-])=C/c2ccc([N+](=O)[O-])o2)o1	inconclusive: 3.16 µM [inhibitor, full curve]	
O=C(c1cc(-n2cnnc2)ccc1Cl)N1CCN(c2nc(-c3ccccc3)cs2)CC1	inconclusive: 11.2 µM [inhibitor, partial curve, poor fit]	
Cc1cccc(NC(=O)c2ccc3c(=O)n4c(nc3c2)CCCCC4)n1	inconclusive: 35.5 µM [inhibitor, single point]	
CCc1ccc(-n2nc(C)c3c(C(=O)Nc4cc(C)ccc4C)cc(C)nc32)cc1		inactive: -2.43% [at 46.1 µM]
Cc1ccn2cc(C(=O)Nc3cccc(C(=O)NC4CC4)c3)nc2c1	inconclusive: 15.8 µM [inhibitor, partial curve, poor fit]	
Cc1ccc(Nc2nc(N)nc(-c3oc4ccccc4c3C)n2)cc1	inconclusive: 6.31 µM [inhibitor, partial curve, poor fit]	
O=S1(=O)CCC(NC(=S)NC2CCS(=O)(=O)C2)C1 (stereo not drawn)	inconclusive: 0.708 µM [inhibitor, partial curve, poor fit]	
Cc1cc(Br)ccc1SCC(=O)N1CCN(S(=O)(=O)c2ccccc2)CC1		inactive: -15%
O=C(Nc1ccnn1C1CCN(Cc2ccc(Cl)cc2)CC1)C1CCCC1		inactive: -1.52%
CN1CCCN(Cc2ccccc2C(F)(F)F)CC1	inconclusive: 1.3 µM [inhibitor, single point]	
O=S(=O)(c1ccc(NC(=S)N/N=C/c2ccc(N3CCOCC3)cc2)cc1)N1CCOCC1	inconclusive: 13 µM [inhibitor, partial curve, poor fit]	
Cc1cccc(N(C(=O)C(F)(F)F)C(C(=O)NC2CCCCC2)c2cccs2)c1 (stereo not drawn)		inactive: -1.09%
O=C(c1ccco1)N1CCN(C(=O)C(c2ccccc2)c2ccccc2)CC1		inactive: -18.1%
Cc1oc(=O)c(NC(=O)c2ccc(Cl)cc2)cc1C(=O)c1ccccc1	active: 23.1 µM	
N=Cc1c(O)n(-c2cccc(Cl)c2)c(=O)[nH]c1=O		inactive: 3.24%
Cc1ccc(Nc2nc(N3CCOCC3)c3ccccc3n2)cc1	inconclusive: 35.5 µM [inhibitor, single point]	
O=C(c1ccc(CS(=O)(=O)c2c(Cl)cccc2Cl)o1)N1CCN(c2ccccc2)CC1	inconclusive: 22.4 µM [inhibitor, partial curve, poor fit]	
Cc1ccccc1COc1ccc(-c2nn[nH]n2)cc1	inconclusive: 25.1 µM [inhibitor, single point]	
CC(C)C1C(=O)N(Cc2cn(CCC3OCCO3)nn2)CCS(=O)(=O)N1Cc1ccc(-c2cccc(CO)c2)cc1 (stereo not drawn)	inconclusive: 0.28 µM [inhibitor, full curve, poor fit]	

Structure (SMILES)	Potency	activity change, negative = inhibition
Cc1ccc(CNC(=O)CCSCCC(=O)NCc2ccc(C)cc2)cc1		inactive: 4.43%
CCn1c(SCc2ccc([N+](=O)[O-])cc2)nnc1C(C)NC(=O)c1ccc(C)cc1 (stereo not drawn)		inactive: -1.29%
O=C(CNC(=O)C(c1ccccc1)c1ccccc1)OCc1ccccc1		inactive: 22.3%
CCCCCc1ccc(C(=O)CCCC)c(=S)[nH]1	inconclusive: 14.1 µM [inhibitor, single point]	
COc1ccc(S(=O)(=O)N2CCC3(CC2)CC(=O)c2ccccc2O3)cc1	inconclusive: 0.891 µM [activator, single point]	
O=C(NCc1ccc2c(c1)OCO2)c1c(F)c(F)c(F)c(F)c1F	inconclusive: 1 µM [activator, single point]	
O=C(Nc1ccccc1)NC1CCN(Cc2c(F)cccc2Cl)CC1	inconclusive: 0.1 µM [inhibitor, full curve, poor fit]	
O=C(Nc1ccccc1)N1CCN(c2ccccc2)CC1	inconclusive: 6.31 µM [inhibitor, single point]	
Cc1c(N)cc[n+](CC(=O)c2ccccc2)c1C		inactive: -17.8%
C[C@H]1[C@H](OC(=O)CCC(=O)NCc2ccc(C(=O)O)cc2)O[C@@H]2O[C@@]3(C)CC[C@H]4[C@H](C)CC[C@@H]1C24OO3	inconclusive: 0.891 µM [inhibitor, full curve, poor fit]	
Cn1c(-c2ccccc2)cnc1SCc1nc2ccccc2c(=O)[nH]1		inactive: -3.07%
Cc1c(C(=O)N(Cc2ccc(N(C)C)cc2)CC2CCCO2)oc2ccc(Br)cc12 (stereo not drawn)	inconclusive: 5.01 µM [inhibitor, full curve, poor fit]	
Cn1nc(C(F)(F)F)c(/C=N/OC(=O)c2ccccc2)c1Sc1ccc(Cl)cc1	inconclusive: 31.6 µM [inhibitor, single point]	
CC(=O)c1cccc(NC(=O)CSc2ccc(-c3sc(C)nc3C)nn2)c1	inconclusive: 35.5 µM [inhibitor, single point]	
NNC(=O)C1CC(O)CN1S(=O)(=O)c1ccc(Cl)cc1 (stereo not drawn)	inconclusive: 20 µM [activator, single point]	
O=C(c1ccccc1)c1ccc(-c2ccc(O)cc2)cc1	inconclusive: 0.708 µM [inhibitor, full curve, poor fit]	
Cc1c(Cl)cccc1NC(=O)CSCC(N)=O		inactive: 34.3%
COc1ccc(C2N(C(C)=O)CCCN2S(=O)(=O)c2ccc(C)cc2)cc1 (stereo not drawn)	inconclusive: 8.91 µM [inhibitor, single point]	
CCN1CCN(c2cc(C)c3cc(NC(=O)c4ccccc4F)ccc3n2)CC1	inconclusive: 4.47 µM [activator, full curve, poor fit]	
CCOC(=O)c1c(NC(=O)COc2ccc(Cl)cc2C)sc(C(C)=O)c1C		inactive: -9.66% [at 46.1 µM]
CC(=O)N1CCc2cc(Br)cc(S(=O)(=O)CCC(=O)Nc3ccc(C)cc3Cl)c21	inconclusive: 5.62 µM [activator, single point]	
CCOc1ccc2oc(=O)cc(CN3CCN(c4ccc(Cl)cc4)CC3)c2c1	inconclusive: 17.8 µM [inhibitor, single point]	
CCc1c(C)c2ccc(O)c(CN3CCN(c4ccccc4)CC3)c2oc1=O	inconclusive: 7.08 µM [activator, full curve, poor fit]	

Three compounds out of the list, arranged by count of non-hydrogen atoms, descending:
Structure (SMILES)	Potency	activity change, negative = inhibition
COc1ccc(C2N(C(C)=O)CCCN2S(=O)(=O)c2ccc(C)cc2)cc1 (stereo not drawn)	inconclusive: 8.91 µM [inhibitor, single point]	
Cc1ccccc1COc1ccc(-c2nn[nH]n2)cc1	inconclusive: 25.1 µM [inhibitor, single point]	
Cc1c(Cl)cccc1NC(=O)CSCC(N)=O		inactive: 34.3%

More results

Structure (SMILES)	Potency	activity change, negative = inhibition
Brc1ccc2nc(-c3ccccc3)c(Nc3ccc4c(c3)OCO4)n2c1	inconclusive: 2.82 µM [activator, single point]	
CCCN(CCC)CCNC(=O)c1cc(-c2ccc(Br)s2)nc2ccccc12	inconclusive: 14.1 µM [inhibitor, partial curve]	
CCn1ncc(Cl)c1C(=O)Nc1cc([N+](=O)[O-])ccc1OC		inactive: -2.5%
COc1ccc(CNC(=O)C2CCN(C(=O)N(C)C)CC2)c(OC)c1	inconclusive: 2.59 µM [activator, partial curve, poor fit]	
Cc1ccccc1C(=O)Nc1ccc(N2CCCC2)cc1	inconclusive: 20 µM [inhibitor, single point]	
Nc1nc(-c2ccccc2)cn1/N=C/c1ccccc1		inactive: -6.08% [at 46.1 µM]
CC(=O)c1cc(C#N)c(SCc2ccccc2)nc1C	inconclusive: 12.6 µM [activator, partial curve]	
COc1ccc(N2CCN(C(=O)COC(=O)c3cccc(S(=O)(=O)Nc4cccc(C)c4)c3)CC2)cc1	inconclusive: 11.2 µM [inhibitor, partial curve, poor fit]	
COc1ccc(-c2nc(C=O)cs2)cc1	inconclusive: 15.8 µM [activator, single point]	
COc1cccc(N(CC(=O)NCCSc2ccccn2)S(=O)(=O)c2ccccc2)c1		inactive: -3.98%
Cc1ccc(-n2cnn(-c3ccc([N+](=O)[O-])cc3[N+](=O)[O-])c2=O)cc1	inconclusive: 6.31 µM [inhibitor, partial curve, poor fit]	
Cc1ccccc1NC(=O)c1c([N+](=O)[O-])c(C(C)(C)C)nn1C	inconclusive: 0.282 µM [activator, full curve, poor fit]	
Cc1cccc2nc(CSc3nc4ccc([N+](=O)[O-])cc4[nH]3)cn12	inconclusive: 1.26 µM [inhibitor, single point]	
COC(=O)N1c2ccccc2C=Cc2ccccc21	inconclusive: 35.5 µM [inhibitor, single point]	
COc1ccc(CNc2c(CO)cnc3c2cnn3C)cc1	inconclusive: 35.5 µM [inhibitor, single point]	
Cc1cccnc1NC(=O)c1ccc(S(=O)(=O)NCc2ccco2)cc1		inactive: 6.82%
Cc1cccc(OC2CCN(Cc3nc(CC4CC4)no3)CC2)c1		inactive: 0.136% [at 46.1 µM]
Cc1ccc(CN2CC(N3CC=CC3)CS2(=O)=O)cc1 (stereo not drawn)	inconclusive: 7.91 µM [inhibitor, single point]	
COc1ccc(/C(C)=N/NC(=S)NCCc2ccccc2)cc1	inconclusive: 35.5 µM [inhibitor, single point]	
O=C(NCC1CCCO1)NC1(C(F)(F)F)Oc2ccccc2O1 (stereo not drawn)		inactive: -5.27%
O=C(c1ccccc1F)c1cn(Cc2ccccc2)c2ccccc12		inactive: -26.1%
CCCS(=O)(=O)N1CCC(C(=O)N2CCC(Cc3ccccc3)CC2)CC1	inconclusive: 35.5 µM [inhibitor, single point]	

A few values from above.
Potency, Cc1ccccc1C(=O)Nc1ccc(N2CCCC2)cc1 reads inconclusive: 20 µM [inhibitor, single point]
activity change, negative = inhibition, Cc1cccc(OC2CCN(Cc3nc(CC4CC4)no3)CC2)c1 reads inactive: 0.136% [at 46.1 µM]
